Laboratory results as given in US11338021B2, “Combination therapies” (ENZYMATICA AB, priority 2015, dated 2022).
At least one compound was matched to its structure with a doubt left.

System: biofilms using a combination of Streptococcus pneumonia and Streptococcus mitis
Assay: Dispersal of pre-grown model (super) biofilm in microtiter plate, crystal violet staining, absorbance at 492 nm
Assay type: cell-based
Settings: absorbance at 492 nm normalized to untreated biofilm
Experimental: Effects of combination of cod trypsins with selected antibiotics on biofilm dispersal. […] Biofilms using a combination of Streptococcus pneumonia and Streptococcus mitis were grown in a microtiter plate and used as a model for biofilm. The biofilm was treated with an antibiotic or a combination of the antibiotics and cod trypsins. The biofilms were stained with crystal violet followed by dissolution with acetic acid. Biofilm formation was measured as absorbance at 492 nm, and normalized to untreated biofilm. […] P values above bars indicate significance of difference between the two treatments as evaluated by Student's t test.
Effects of combination of cod trypsins with selected antibiotics on biofilm dispersal. […] Biofilm formation was measured as absorbance at 492 nm, and normalized to untreated biofilm. […] P values above bars indicate significance of effects as evaluated by ANOVA analysis. […]
Effects of cod trypsins on the super biofilm as measured by spectrophotometry after crystal violet staining and dissolution in acetic acid. […] Biofilm formation was measured as absorbance at 492 nm, and normalized to untreated biofilm. […]
Log reduction of super biofilm by cod trypsins at different concentrations. […] Biofilm formation was measured as absorbance at 492 nm, and the reduction compared to placebo treated biofilm on a logarithmic scale. […]

CN(C)[C@@H]1C(O)=C(C(N)=O)C(=O)[C@@]2(O)C(O)=C3C(=O)c4c(O)cccc4[C@@](C)(O)[C@H]3C[C@@H]12 [tetracycline]
biofilm disruption by antibiotic and cod trypsin combination compared with antibiotic alone (FIG. 1, Student's t test): more effective in disrupting bacterial biofilm than antibiotics alone
biofilm disruption by combination of cod trypsin and antibiotic compared with either alone (FIG. 2, ANOVA): more effective in disrupting bacterial biofilm than either cod trypsins or antibiotics alone
